To fix the notation:
B1: monoclonal antibody 8D2 (antibody, V domains shown)
VH: EVKLDETGGGLVQPGRPMKLSCVASGFTFSDNWMNWVRQSPEKGLEWLAQIRNKPYNYETYYSDSVKGRFTISRDDSKSSVYLQMNNLRGEDMGIYYCTAQFAYWGQGTLVTVSA
VL: DIQMTQSPASLSASVGETVTITCGTSENIYGGLNWYQRKQGKSPQLLIFGATNLADGMSSRFSGSGSGRQYSLKISSLHPDDVATYYCQNVLRSPFTFGSGTKLEI
B2: 8D2 recombinant antibody, 8D2(Re) (antibody, V domains shown)
VH: B1 VH
VL: B1 VL
B3: humanized antibody 8D2H1L1 (antibody, V domains shown)
VH: EVQLVESGGGLVQPGGSMRLSCAASGFTFSDNWMNWVRQAPGKGLEWLAQIRNKPYNYETYYSDSVKGRFTISRDDSKNSVYLQMNSLKTEDTGVYYCTAQFAYWGQGTLVTVSS
VL: DIQMTQSPSSLSASVGDRVTITCRTSENIYGGLNWYQRKQGKSPKLLIYGATNLASGMSSRFSGSGSGTDYTLKISSLHPDDVATYYCQNVLRSPFTFGSGTKLEIK
B4: humanized antibody 8D2H3L3 (antibody, V domains shown)
VH: B3 VH with M18L, L48V, Y61E, S63A, D64A, V81A, G94A
VL: DIQMTQSPSSLSASVGDRVTITCRASENIYGGLNWYQQKPGKAPKLLIYGATSLASGVPSRFSGSGSGTDYTLTISSLQPEDFATYYCQNVLRSPFTFGSGTKLEIK
B5: humanized antibody 8D2H2L2 (antibody, V domains shown)
VH: B3 VH with D64A
VL: B3 VL with Q40P, M58V, K74T, H79Q, D81E

Amino acid sequences for entries named in this document (tags omitted). Residues count along the entry.
UniProt P16410, residues 36-223: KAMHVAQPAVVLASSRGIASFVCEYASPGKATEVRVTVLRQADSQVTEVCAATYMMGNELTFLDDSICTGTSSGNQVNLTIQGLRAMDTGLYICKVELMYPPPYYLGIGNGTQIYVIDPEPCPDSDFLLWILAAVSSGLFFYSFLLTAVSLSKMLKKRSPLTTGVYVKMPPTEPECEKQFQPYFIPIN

Numbering of substitutions follows the chain as printed. Results are given in words; binding and its absence hold for the method and conditions named. Some results given as binding are weak or reduced against the parent protein; the word gives no strength.

This assay has as its target CTLA4 antigen on the surface of 293F-CTLA4 host cells (UniProt P16410). The assay is described as follows: flow cytometry, 293F-CTLA4 cells.
On to B1, for which the binding entry is on record as “binds”. The value for B2 was “binds”.

Consider B3, for which the binding result is “binds”.

Take B4: the binding entry was “binds”. The value for B5 was “binds”.

The values above are taken from patent US20260166139A1.
